Results are given in words; binding and its absence hold for the method and conditions named. In cells and extracts the contact can be indirect. Some entries that bind do so weakly or less than the wild type.
Target: EPRS (glutamyl-prolyl tRNA synthetase) (UniProt P07814)
Assay: co-immunoprecipitation and immunocytochemistry in LC319 cells

Protein sequences, listed by entry. Tags and fused reporters are not part of them. Lines headed by an entry give the natural chain unless they say otherwise; changes in a name come on top.
UniProt P07814: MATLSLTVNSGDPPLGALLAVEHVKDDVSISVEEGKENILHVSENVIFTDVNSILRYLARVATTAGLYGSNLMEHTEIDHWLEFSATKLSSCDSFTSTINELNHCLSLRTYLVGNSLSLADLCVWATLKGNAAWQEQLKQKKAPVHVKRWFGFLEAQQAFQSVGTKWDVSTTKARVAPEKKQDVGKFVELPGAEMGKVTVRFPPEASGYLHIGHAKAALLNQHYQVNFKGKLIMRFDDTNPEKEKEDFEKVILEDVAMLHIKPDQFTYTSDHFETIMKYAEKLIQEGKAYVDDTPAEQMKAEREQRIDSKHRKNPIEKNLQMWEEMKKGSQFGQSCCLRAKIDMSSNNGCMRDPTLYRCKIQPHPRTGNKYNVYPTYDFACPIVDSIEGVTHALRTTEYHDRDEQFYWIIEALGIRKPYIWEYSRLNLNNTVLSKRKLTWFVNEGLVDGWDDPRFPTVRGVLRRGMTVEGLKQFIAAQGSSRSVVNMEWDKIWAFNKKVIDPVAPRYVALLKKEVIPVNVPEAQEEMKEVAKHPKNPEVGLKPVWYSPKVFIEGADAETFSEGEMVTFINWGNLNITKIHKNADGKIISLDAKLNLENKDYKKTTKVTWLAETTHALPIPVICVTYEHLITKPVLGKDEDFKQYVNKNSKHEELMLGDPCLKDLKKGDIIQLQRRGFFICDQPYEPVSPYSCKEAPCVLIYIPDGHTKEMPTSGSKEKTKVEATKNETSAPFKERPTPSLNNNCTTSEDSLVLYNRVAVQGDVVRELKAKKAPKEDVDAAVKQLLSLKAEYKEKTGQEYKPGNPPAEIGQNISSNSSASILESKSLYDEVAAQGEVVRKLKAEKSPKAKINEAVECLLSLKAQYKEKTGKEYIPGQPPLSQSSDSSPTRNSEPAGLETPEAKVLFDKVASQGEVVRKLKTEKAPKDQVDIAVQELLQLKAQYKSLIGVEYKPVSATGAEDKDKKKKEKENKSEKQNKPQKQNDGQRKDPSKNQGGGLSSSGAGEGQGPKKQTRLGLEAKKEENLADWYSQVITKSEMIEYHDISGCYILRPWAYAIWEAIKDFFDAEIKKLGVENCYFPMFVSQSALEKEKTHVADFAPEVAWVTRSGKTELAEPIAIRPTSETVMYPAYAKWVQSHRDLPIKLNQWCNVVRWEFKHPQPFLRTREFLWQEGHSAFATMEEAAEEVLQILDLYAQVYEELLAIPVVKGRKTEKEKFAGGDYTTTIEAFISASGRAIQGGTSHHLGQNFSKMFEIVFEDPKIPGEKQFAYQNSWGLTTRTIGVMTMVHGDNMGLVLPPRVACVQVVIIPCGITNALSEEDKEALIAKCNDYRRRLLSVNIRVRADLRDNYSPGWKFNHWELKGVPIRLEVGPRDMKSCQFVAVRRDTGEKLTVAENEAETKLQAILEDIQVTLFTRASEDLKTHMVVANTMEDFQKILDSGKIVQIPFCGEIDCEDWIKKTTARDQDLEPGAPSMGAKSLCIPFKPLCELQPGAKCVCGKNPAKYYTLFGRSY
UniProt Q9NX74: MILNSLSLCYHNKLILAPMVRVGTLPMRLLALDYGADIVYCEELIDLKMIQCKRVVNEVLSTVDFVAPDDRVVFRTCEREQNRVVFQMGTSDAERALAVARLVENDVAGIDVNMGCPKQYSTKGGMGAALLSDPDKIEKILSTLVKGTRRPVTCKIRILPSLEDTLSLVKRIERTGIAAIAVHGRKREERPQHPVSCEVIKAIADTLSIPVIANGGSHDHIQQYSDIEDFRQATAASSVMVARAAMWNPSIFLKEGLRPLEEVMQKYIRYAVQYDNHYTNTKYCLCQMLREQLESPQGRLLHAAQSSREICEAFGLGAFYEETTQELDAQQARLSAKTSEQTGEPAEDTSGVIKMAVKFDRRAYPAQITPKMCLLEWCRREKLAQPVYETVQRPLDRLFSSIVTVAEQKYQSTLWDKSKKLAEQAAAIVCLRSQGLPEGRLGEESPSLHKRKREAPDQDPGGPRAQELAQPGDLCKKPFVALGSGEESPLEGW

- binding: binds
Substance: endogenous IMS-E21 (URLC8) (from UniProt Q9NX74 1-493) (enzyme)

Source: US20080119428A1
